Literature values in patent publication US8039514B2, “Sulfonamide compounds and use thereof” (Asahi Kasei Pharma Corporation, priority 2008, dated 2011).

Conditions: PTH 20 μg subcutaneous everyday; ALN 10 mg oral everyday; cited from earlier work

Question: With `NCCCC(O)(P(=O)(O)O)P(=O)(O)O` [ALN, alendronate] as the compound, how does the “increase of bone mineral density of lumbar spine 18 months after the administration” value read?
Answer: 5.5%
